Holding throughout (format): in vivo
Holding throughout (conditions): logistic regression of knockdown-time curve

For series [1], the system named is Culex quinquefasciatus. As to the kind of experiment: Lethality (knockdown time) on contact with IMI polymorph microcrystals in petri dish, Culex mosquitoes. The procedure:
(§1) Lethality measurements for IMI polymorphs. Microcrystals of IMI Forms I, IV, VI, and IX were prepared by grinding respective single crystals using a mortar and pestle. Their compositions were then analyzed by powder X-ray diffraction (PXRD). Lethality measurements were performed in triplicate for each solid-state form, each accompanied by three controls (no insecticide). 2.0 mg of microcrystals was added to a 35 mm diameter polystyrene petri dish, which was subsequently shaken to disperse the microcrystals throughout the petri dish. Microcrystals was added to a polystyrene petri dish (2.000 mg microcrystals per 35 mm diameter dish for fruit flies; 0.100 mg microcrystals per 100 mm diameter dish for mosquitoes), which was subsequently shaken to disperse the microcrystals throughout the petri dish. Adult mosquitoes (Ae. aegypti, A. quadrimaculatus or C. quinquefasciatus) or fruit flies (D. melanogaster) were sedated with carbon dioxide and 30 female mosquitoes or 20 flies were transferred to each petri dish. The top of the dish was then placed over the bottom and the motion of the insects was recorded with a video camera (Sony HDR-CX455). The knockdown time was measured for each individual insect, with knockdown associated with an insect laying on the bottom surface of the petri dish in a supine position without moving from its original position after 10 seconds.
(§2) Statistical analyses. Logistic regression of knockdown-time curves was preformed to obtain the median knockdown time (KT50) of the test flies and mosquitoes, the 95% confidence intervals (CI), slopes, and standard errors (SE) using Qcal software.

Series [2] concerns Drosophila melanogaster. As to the kind of experiment: Lethality (knockdown time) on contact with IMI polymorph microcrystals in petri dish, fruit flies. The procedure: as §1, §2
IMI Forms IX, VI, IV were selected for lethality comparison with the commercial Form I, collectively representing a quartet spanning a wide range of free energies. […] A video camera was used to record the knockdown times—a proxy for lethality—for each insect. KT50 values, the times required for 50% of the insects to become immobile and supine, were calculated by logistic regression of knockdown-time curves (FIGS. 34A-34P). Shorter KT50 values correspond to greater lethality. Accordingly, Forms IX, VI and IV were 5.7, 2.5 and 1.8 times faster-acting than Form I.

Series [3] relates to Anopheles quadrimaculatus. As to the kind of experiment: Lethality (knockdown time) on contact with IMI polymorph microcrystals in petri dish, Anopheles mosquitoes. The procedure:
as §1, §2

The values that follow come from patent US11827622B2, “Crystalline forms of imidacloprid and methods of use thereof” (New York University, priority 2020, dated 2023).

With `O=[N+]([O-])N=C1NCCN1Cc1ccc(Cl)nc1` [Form IV, 1-[(6-chloro-3-pyridinyl)-methyl]-N-nitro-2-imidazolidinimine], in series [1], the “Intercept ± SE” value was −67.03 ± 2.37. The “Slope ± SE” value in series [1] is on record as 11.68 ± 0.41; in series [2], 1.37 ± 0.06; in series [3], 4.30 ± 0.15.
On the same counts, the results for `O=[N+]([O-])N=C1NCCN1Cc1ccc(Cl)nc1` [Form I, 1-[(6-chloro-3-pyridinyl)-methyl]-N-nitro-2-imidazolidinimine, reference compound] are −47.20 ± 2.18, 7.43 ± 0.34, 2.21 ± 0.13 and 5.12 ± 0.22.
In the same order, the values of `O=[N+]([O-])N=C1NCCN1Cc1ccc(Cl)nc1` [Form VI, 1-[(6-chloro-3-pyridinyl)-methyl]-N-nitro-2-imidazolidinimine] are −25.32 ± 0.95, 4.82 ± 0.18, 1.30 ± 0.05 and 5.81 ± 0.23.
On the same counts, the results for `O=[N+]([O-])N=C1NCCN1Cc1ccc(Cl)nc1` [Form IX, 1-[(6-chloro-3-pyridinyl)-methyl]-N-nitro-2-imidazolidinimine] are −21.09 ± 0.82, 4.70 ± 0.18, 1.42 ± 0.05 and 3.68 ± 1.34.
